# Measurements as given in patent publication US20230159484A1, “FLUORESCENT DYES HAVING HIGH STOKES SHIFT, ON THE BASIS OF BRIDGED BENZOPYRYLIUM SALTS” (DYOMICS GmbH, priority 2020, published 2023).
# Where a name gives a salt, the structure may show the parent alone. At least one structure is not confirmed: it was looked up by name or label, or the drawing left a doubt.
# Tests used:
# [1] = UV-Vis absorption (absorption maximum, extinction coefficient); format: physicochemical
# Protocol: (§1) Depending on the basic structure and substitution, the absorption maxima lie in the entire range of visible light, with a focus at 500-530 nm. The compounds show a high Stokes shift in the range of 80 nm. The absorption is measured, for example, at 25° C. in aqueous or ethanolic solutions with an extinction of 1.0 using a Specord 205 from Analytik Jena, wherein the aqueous solutions are preferably phosphate-buffered salt solutions (PBS buffer; approx. 100 mM sodium chloride and 100 mM total phosphate) and have a pH of 7.5. For example, the emission is measured at 25° C. in dilute aqueous or ethanolic solutions with an extinction of 0.1 using a FP-6600 spectrofluorometer from Jasco, wherein the dilute aqueous solutions are preferably phosphate-buffered salt solutions (PBS buffer; about 100 mM sodium chloride and 100 mM total phosphate) and have a pH of 7.5.
# [2] = Fluorescence emission (emission maximum); format: physicochemical
# Protocol: as §1
Structure (SMILES),ε ([1]; UV-Vis in PBS),λmax ([1]; UV-Vis in PBS) [nm],ε ([1]; UV-Vis in ethanol),λmax ([1]; UV-Vis in ethanol) [nm],λem ([2]; in PBS) [nm],λem ([2]; in ethanol) [nm]
"CN(C1=Cc2[o+]c3cc4c(cc3cc2C(C)(C)C1)C(CS(=O)(=O)[O-])=CC(C)(C)N4CCCCCC(=O)O)c1ccc(S(=O)(=O)[O-])cc1.[Na+] [Compound 25, 4-[[1-(5-carboxypentyl)-2,2,7,7-tetramethyl-4-(sulfonatomethyl)-8H-chromeno[3,2-g]quinolin-11-ium-9-yl]-methyl-amino]benzenesulfonate Sodium Salt]","42,000 l/mol*cm",540,"43,000 l/mol*cm",545,620,615
"CC1=CC(C)(C)N(CCCCCC(=O)O)c2cc3[o+]c4c(cc3cc21)C(C)(C)CC(N(C)c1ccccc1)=C4 [Compound 24, 6-[2,2,4,7,7-pentamethyl-9-(N-methylanilino)-8H-chromeno[3,2-g]quinolin-11-ium-1-yl]hexanoic Acid Chloride Salt]",39000 L/mol/cm,548,"41,000 l/mol*cm",555,632,630
